This is one part of the list.
These targets were tested with CN1CCN(c2nc(C3=C(c4c[nH]c5ccccc45)C(=O)NC3=O)c3ccccc3n2)CC1 [sotrastaurin] (assay: log2 fold change, soluble protein after heating vs DMSO (PISA); higher = thermal stabilisation; K562 cells, 10 uM, 30 min; active = over 0.2 and 3.5 SD of the protein, either way, in both replicates (recomputed)).
How it was run: (§1)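 K562 cells at 2×10^6 cells/mL were treated with 10 μM compound for 30 min. Aliquots were heated for 3 min across 48°C-58°C, pooled, and extracted in PBS with 0.5% NP-40 at 4°C; soluble protein was the supernatant after 21,000xg for 90 min. Soluble protein was quantified by TMTpro 16plex LC-MS/MS with channel sums equalised, and reported as log2 fold change in thermal stability against DMSO controls, with values from duplicates.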

Protein sequences, listed by entry. Tags and fused reporters are not part of them. Lines headed by an entry give the natural chain unless they say otherwise; changes in a name come on top.
UniProt Q9BRD0: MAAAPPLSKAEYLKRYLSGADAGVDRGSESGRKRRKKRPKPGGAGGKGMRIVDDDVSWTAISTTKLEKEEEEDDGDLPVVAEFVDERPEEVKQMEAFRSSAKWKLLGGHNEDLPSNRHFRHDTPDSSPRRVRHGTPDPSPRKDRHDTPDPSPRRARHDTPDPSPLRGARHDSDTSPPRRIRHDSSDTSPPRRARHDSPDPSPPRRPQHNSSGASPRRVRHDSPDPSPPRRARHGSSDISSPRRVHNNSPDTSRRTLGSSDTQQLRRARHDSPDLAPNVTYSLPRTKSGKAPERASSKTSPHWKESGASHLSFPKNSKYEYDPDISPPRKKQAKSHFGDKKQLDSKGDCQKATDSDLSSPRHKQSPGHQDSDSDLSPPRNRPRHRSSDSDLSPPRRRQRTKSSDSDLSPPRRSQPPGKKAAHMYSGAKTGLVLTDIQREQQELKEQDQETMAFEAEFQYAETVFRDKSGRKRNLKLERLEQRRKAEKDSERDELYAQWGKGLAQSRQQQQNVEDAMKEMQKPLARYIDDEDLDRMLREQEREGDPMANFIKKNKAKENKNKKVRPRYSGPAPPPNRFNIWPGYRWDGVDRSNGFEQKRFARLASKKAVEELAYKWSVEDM
UniProt O43709: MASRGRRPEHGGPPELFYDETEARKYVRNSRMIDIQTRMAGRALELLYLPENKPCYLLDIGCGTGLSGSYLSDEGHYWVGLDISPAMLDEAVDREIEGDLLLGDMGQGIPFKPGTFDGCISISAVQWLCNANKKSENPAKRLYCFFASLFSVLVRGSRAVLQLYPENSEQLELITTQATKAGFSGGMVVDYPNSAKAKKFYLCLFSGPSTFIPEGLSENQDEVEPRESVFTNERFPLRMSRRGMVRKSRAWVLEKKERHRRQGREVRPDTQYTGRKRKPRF
UniProt Q8NDD1: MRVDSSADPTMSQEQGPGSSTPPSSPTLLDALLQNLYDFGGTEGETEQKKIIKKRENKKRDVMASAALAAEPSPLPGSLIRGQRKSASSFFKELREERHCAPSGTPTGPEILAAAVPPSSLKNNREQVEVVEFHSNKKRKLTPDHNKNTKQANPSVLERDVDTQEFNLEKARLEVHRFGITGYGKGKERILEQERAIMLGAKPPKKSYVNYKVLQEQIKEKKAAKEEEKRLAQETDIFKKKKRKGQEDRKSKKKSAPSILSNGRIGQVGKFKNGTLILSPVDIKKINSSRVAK
UniProt Q8N999, whole entry, looked up: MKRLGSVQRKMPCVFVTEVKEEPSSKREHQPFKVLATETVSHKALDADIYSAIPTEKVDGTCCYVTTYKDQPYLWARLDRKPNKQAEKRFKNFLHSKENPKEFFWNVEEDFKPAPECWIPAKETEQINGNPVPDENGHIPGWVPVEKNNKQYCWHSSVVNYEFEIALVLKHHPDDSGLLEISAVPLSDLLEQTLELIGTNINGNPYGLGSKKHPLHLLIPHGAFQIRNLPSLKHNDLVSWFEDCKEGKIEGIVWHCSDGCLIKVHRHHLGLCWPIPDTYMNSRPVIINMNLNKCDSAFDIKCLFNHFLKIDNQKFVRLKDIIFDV
UniProt O43683: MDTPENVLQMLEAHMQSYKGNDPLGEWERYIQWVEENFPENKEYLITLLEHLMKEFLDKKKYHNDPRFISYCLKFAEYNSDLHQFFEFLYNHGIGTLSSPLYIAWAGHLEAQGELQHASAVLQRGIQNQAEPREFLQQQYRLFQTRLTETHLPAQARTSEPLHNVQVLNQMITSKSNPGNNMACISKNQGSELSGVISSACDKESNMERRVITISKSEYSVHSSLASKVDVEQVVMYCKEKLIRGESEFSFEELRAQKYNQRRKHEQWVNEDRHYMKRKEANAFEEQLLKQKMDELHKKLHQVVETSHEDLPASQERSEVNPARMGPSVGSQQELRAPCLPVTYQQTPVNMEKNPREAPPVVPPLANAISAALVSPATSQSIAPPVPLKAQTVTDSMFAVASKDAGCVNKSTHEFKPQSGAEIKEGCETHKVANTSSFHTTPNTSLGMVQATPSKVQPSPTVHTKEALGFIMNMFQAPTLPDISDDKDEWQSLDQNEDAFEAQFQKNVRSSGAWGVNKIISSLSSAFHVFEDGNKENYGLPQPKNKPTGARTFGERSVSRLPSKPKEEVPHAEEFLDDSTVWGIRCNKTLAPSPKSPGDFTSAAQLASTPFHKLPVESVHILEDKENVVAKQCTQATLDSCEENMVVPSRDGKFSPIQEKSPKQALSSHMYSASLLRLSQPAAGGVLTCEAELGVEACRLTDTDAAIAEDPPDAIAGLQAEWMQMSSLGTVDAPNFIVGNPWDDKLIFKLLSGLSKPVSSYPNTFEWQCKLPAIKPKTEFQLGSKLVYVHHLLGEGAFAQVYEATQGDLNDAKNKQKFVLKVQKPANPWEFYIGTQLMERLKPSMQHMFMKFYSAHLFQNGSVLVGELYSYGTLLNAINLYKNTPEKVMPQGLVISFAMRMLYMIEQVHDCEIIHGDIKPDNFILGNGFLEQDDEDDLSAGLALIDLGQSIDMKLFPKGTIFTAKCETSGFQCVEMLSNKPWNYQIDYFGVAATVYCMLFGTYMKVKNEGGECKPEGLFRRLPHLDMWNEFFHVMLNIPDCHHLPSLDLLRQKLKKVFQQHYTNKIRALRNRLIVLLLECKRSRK
UniProt Q9BVC5: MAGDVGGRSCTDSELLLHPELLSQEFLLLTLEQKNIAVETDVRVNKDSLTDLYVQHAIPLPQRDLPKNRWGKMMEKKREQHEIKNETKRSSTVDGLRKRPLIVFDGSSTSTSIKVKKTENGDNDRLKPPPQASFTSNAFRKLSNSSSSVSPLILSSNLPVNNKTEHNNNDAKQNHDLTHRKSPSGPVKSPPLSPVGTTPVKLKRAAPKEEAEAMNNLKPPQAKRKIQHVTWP
UniProt A6NDU8: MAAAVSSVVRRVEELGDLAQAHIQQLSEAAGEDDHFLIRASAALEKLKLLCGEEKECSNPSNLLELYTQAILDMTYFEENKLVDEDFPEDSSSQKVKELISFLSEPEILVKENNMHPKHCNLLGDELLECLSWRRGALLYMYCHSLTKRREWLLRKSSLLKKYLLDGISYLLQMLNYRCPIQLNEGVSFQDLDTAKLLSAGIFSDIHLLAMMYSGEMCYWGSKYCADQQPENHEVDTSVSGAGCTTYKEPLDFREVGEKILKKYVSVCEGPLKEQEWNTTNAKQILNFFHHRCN
UniProt Q6UWU4: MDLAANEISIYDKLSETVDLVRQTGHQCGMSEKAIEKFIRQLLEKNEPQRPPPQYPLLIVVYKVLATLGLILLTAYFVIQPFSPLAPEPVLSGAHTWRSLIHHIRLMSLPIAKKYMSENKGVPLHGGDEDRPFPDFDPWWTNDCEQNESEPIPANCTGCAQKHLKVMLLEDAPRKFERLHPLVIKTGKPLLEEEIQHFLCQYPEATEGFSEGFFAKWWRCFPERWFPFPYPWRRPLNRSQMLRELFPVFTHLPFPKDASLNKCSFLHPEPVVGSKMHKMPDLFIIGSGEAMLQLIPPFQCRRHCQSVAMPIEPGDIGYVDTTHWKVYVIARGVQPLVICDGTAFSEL
UniProt Q9Y2V2: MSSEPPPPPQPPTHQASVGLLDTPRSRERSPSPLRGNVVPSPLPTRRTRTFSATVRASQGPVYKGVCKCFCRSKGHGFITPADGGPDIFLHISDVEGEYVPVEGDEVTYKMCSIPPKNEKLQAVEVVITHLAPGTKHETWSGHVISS
UniProt Q49AR2: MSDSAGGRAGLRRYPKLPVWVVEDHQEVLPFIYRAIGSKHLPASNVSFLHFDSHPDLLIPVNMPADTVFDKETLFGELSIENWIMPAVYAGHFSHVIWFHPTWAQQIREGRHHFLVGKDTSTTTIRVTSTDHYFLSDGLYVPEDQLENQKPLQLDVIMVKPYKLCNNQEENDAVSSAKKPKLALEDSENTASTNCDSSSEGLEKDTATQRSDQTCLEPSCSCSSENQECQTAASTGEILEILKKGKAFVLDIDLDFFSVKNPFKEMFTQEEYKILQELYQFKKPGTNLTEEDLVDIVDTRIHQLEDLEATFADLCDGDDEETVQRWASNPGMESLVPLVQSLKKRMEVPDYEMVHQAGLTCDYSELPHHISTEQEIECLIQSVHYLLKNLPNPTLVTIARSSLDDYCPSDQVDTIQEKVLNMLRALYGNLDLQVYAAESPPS
UniProt Q5JPI3: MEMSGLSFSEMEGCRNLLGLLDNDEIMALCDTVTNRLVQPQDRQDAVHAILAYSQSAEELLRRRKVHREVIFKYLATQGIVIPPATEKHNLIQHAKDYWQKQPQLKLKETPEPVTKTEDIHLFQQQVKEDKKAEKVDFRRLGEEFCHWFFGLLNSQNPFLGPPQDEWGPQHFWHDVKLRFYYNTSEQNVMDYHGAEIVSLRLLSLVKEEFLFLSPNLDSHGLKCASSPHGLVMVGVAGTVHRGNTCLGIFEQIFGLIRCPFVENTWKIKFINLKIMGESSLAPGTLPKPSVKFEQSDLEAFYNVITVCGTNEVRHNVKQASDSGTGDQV
UniProt Q9BSJ5: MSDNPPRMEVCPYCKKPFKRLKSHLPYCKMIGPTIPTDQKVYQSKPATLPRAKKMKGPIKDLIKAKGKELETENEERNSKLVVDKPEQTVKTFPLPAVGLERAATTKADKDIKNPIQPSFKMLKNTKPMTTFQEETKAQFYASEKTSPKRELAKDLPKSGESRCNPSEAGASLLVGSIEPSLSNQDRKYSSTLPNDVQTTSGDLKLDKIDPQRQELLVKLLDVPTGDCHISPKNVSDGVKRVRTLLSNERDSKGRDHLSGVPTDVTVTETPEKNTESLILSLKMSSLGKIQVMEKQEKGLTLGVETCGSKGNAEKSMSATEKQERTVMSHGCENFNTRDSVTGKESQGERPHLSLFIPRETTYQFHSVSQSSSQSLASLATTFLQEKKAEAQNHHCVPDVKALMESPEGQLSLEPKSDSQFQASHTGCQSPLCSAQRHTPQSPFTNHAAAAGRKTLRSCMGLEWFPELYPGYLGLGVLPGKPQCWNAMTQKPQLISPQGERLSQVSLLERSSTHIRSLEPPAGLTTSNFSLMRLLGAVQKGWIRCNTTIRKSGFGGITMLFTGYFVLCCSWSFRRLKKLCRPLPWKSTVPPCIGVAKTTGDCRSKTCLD
UniProt O14523: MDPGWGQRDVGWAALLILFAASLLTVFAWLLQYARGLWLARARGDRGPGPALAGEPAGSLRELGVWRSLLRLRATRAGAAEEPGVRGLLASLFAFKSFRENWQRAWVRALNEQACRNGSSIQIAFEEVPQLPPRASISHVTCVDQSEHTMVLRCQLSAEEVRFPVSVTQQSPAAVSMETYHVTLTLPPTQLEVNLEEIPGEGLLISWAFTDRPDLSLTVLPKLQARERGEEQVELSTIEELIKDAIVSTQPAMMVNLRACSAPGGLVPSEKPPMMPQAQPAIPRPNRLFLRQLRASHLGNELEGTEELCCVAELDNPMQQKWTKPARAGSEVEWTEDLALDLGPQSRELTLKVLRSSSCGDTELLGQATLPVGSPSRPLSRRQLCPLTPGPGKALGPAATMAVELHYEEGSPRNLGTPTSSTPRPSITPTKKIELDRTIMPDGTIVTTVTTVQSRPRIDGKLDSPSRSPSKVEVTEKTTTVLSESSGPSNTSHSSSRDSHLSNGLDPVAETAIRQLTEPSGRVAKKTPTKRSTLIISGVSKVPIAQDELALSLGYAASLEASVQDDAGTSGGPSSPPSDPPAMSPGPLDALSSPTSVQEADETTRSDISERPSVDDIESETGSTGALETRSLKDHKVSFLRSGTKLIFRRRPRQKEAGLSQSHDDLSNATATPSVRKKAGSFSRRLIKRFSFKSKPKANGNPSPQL
UniProt Q8N1Q1: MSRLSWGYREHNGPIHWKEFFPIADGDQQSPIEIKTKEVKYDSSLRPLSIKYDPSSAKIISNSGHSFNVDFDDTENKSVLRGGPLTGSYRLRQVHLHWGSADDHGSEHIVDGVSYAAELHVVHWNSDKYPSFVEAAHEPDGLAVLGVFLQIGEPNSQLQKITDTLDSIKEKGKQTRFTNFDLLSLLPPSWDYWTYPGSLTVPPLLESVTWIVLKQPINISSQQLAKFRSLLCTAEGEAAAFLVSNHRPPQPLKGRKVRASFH
UniProt Q9HB71, whole entry, looked up: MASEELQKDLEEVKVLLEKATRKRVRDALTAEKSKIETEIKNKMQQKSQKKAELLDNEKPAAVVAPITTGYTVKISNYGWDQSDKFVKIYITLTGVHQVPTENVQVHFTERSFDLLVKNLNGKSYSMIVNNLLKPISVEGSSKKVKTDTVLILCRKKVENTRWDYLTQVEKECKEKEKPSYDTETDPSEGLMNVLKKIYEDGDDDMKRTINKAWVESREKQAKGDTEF
UniProt P35613: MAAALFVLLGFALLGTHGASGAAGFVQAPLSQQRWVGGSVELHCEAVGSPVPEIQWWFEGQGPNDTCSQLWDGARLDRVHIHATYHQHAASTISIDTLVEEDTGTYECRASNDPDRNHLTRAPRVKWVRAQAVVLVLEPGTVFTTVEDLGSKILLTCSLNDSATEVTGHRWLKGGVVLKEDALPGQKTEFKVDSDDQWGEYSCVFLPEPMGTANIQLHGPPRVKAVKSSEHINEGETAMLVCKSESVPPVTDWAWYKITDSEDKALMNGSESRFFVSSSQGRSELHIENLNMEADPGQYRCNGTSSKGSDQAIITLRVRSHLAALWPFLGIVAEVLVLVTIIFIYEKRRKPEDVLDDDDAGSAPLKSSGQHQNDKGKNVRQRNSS

Target | log2 fold change
C1GALT1 (UniProt Q9NS00) | inactive: 0.084
BUD13 (UniProt Q9BRD0) | inactive: -0.061
BUD23 isoform 3 (UniProt O43709) | inactive: 0.036
C1orf131 isoform 5 (UniProt Q8NDD1) | inactive: 0.017
BTF3 (UniProt P20290) | inactive: 0.045
C12orf29 (UniProt Q8N999) | inactive: 0.021
C11orf98 (UniProt E9PRG8) | inactive: 0.017
CALR (UniProt P27797) | inactive: -0.043
BUB1 (UniProt O43683) | inactive: 0.067
CAB39 (UniProt Q9Y376) | inactive: 0.049
C2orf49 (UniProt Q9BVC5) | inactive: -0.265
CALU isoform 3 (UniProt O43852) | inactive: 0.045
C9orf40 (UniProt Q8IXQ3) | inactive: 0.017
C5orf51 (UniProt A6NDU8) | inactive: -0.087
CAPZA2 (UniProt P47755) | inactive: -0.007
CALM2 (UniProt P0DP24) | inactive: 0.041
C6orf89 isoform 2 (UniProt Q6UWU4) | inactive: 0.037
CARHSP1 (UniProt Q9Y2V2) | inactive: -0.046
C5orf22 (UniProt Q49AR2) | inactive: 0.013
BTK isoform 2 (UniProt Q06187) | inactive: -0.178

Target | log2 fold change
C1orf122 (UniProt Q6ZSJ8) | inactive: -0.045
C11orf54 (UniProt Q9H0W9) | inactive: 0.03
C1orf109 (UniProt Q9NX04) | inactive: -0.014
C3orf38 (UniProt Q5JPI3) | inactive: 0.105
C17orf80 (UniProt Q9BSJ5) | inactive: 0.082
C8orf33 isoform 2 (UniProt Q9H7E9) | inactive: -0.002
C9orf85 isoform 1 (UniProt Q96MD7) | inactive: -0.061
C2CD5 isoform 4 (UniProt Q86YS7) | inactive: 0.004
C3 (UniProt P01024) | inactive: 0.244
C2CD2L (UniProt O14523) | inactive: 0.032
CA13 (UniProt Q8N1Q1) | inactive: -0.021
C19orf25 (UniProt Q9UFG5) | inactive: 0.023
CACYBP (UniProt Q9HB71) | inactive: 0.008
C2CD2 (UniProt Q9Y426) | inactive: 0.055
C15orf40 (UniProt Q8WUR7) | inactive: 0.074
BSG (UniProt P35613) | inactive: 0.049
BTF3L4 (UniProt Q96K17) | inactive: 0.026
C6orf47 (UniProt O95873) | inactive: 0.06
C1orf198 (UniProt Q9H425) | inactive: -0.003

These targets were tested with CN1CC[C@H](c2c(O)cc(O)c3c(=O)cc(-c4ccccc4Cl)oc23)[C@H](O)C1 [alvocidib] in the same assay as above.
How it was run: as §1

Target | log2 fold change
C1GALT1 (UniProt Q9NS00) | inactive: -0.08
BUD13 (UniProt Q9BRD0) | inactive: 0.034
BUD23 isoform 3 (UniProt O43709) | inactive: 0.13
C1orf131 isoform 5 (UniProt Q8NDD1) | inactive: 0.239
BTF3 (UniProt P20290) | inactive: -0.022
C12orf29 (UniProt Q8N999) | inactive: 0.049
C11orf98 (UniProt E9PRG8) | inactive: 0.314
CALR (UniProt P27797) | inactive: 0.01
BUB1 (UniProt O43683) | inactive: 0.075
CAB39 (UniProt Q9Y376) | inactive: -0.018
C2orf49 (UniProt Q9BVC5) | inactive: 0.04
CALU isoform 3 (UniProt O43852) | inactive: 0.011
C9orf40 (UniProt Q8IXQ3) | inactive: 0
C5orf51 (UniProt A6NDU8) | inactive: -0.09
CAPZA2 (UniProt P47755) | inactive: -0.017
CALM2 (UniProt P0DP24) | inactive: 0.008
C6orf89 isoform 2 (UniProt Q6UWU4) | inactive: -0.018
CARHSP1 (UniProt Q9Y2V2) | inactive: -0.003
C5orf22 (UniProt Q49AR2) | inactive: -0.026
BTK isoform 2 (UniProt Q06187) | inactive: 0.106

Target | log2 fold change
C1orf122 (UniProt Q6ZSJ8) | inactive: -0.191
C11orf54 (UniProt Q9H0W9) | inactive: -0.081
C1orf109 (UniProt Q9NX04) | inactive: 0.01
C3orf38 (UniProt Q5JPI3) | inactive: 0.005
C17orf80 (UniProt Q9BSJ5) | inactive: -0.034
C8orf33 isoform 2 (UniProt Q9H7E9) | inactive: 0.39
C9orf85 isoform 1 (UniProt Q96MD7) | inactive: -0.084
C2CD5 isoform 4 (UniProt Q86YS7) | inactive: 0.049
C3 (UniProt P01024) | inactive: 0.105
C2CD2L (UniProt O14523) | inactive: 0.006
CA13 (UniProt Q8N1Q1) | inactive: -0.178
C19orf25 (UniProt Q9UFG5) | inactive: 0.022
CACYBP (UniProt Q9HB71) | inactive: -0.052
C2CD2 (UniProt Q9Y426) | inactive: 0.177
C15orf40 (UniProt Q8WUR7) | inactive: 0.036
BSG (UniProt P35613) | inactive: 0.083
BTF3L4 (UniProt Q96K17) | inactive: 0.013
C6orf47 (UniProt O95873) | inactive: 0.024
C1orf198 (UniProt Q9H425) | inactive: 0.019

Reference: the supplement of paper PMC10849652
